{"source": "PubChem BioAssay AID602196 (INSERM, 2012)", "purpose": "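Genes whose knock-down alters cisplatin killing of lung cancer cells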", "cells": "human A549 lung cancer cells", "knock-down reagent": "siRNA pair against human genes", "time to read-out": "48 h transfection before cisplatin; time from cisplatin to read-out not stated", "treatment": "cisplatin at a dose killing half of control-siRNA cells; exact dose and duration not given", "measured": "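Shift in cisplatin death relative to control siRNA, from -50 (all cells die) to +50 (no cells die); siRNAs harmful on their own scored 0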", "reading the numbers": "two-siRNA summed score (-2 to +2): higher = both siRNAs protect from cisplatin killing; -2 means both sensitise", "rule for the call": "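Each siRNA scores 0 if harmful alone by LDH or WST-1, otherwise +1 if it reduces and -1 if it increases cisplatin killing; a gene is active when both siRNAs agree (sum +2 or -2)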", "calls": "active = both siRNAs shift cisplatin killing the same way; inactive = no consistent shift, or siRNA harmful alone", "note": "This is one part, drawn at random, of about 23,000 reagents. 455 of all reagents (2%) count as active. 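Active includes both protection and sensitisation; some change values fall well beyond the stated -50 to +50 range.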 A number with no mark means an inactive call. Further read-outs or replicates are left out here. The record does not give: the amount of reagent."}
{"target": "TATDN2", "two-siRNA summed score (-2 to +2)": 0}
{"target": "LOC440421", "two-siRNA summed score (-2 to +2)": 0}
{"target": "KCTD4", "two-siRNA summed score (-2 to +2)": 0}
{"target": "TULP2", "two-siRNA summed score (-2 to +2)": 0}
{"target": "LOC441754", "two-siRNA summed score (-2 to +2)": 0}
{"target": "RBM4", "two-siRNA summed score (-2 to +2)": 0}
{"target": "CDKN1B", "two-siRNA summed score (-2 to +2)": 1}
{"target": "OR11H4", "two-siRNA summed score (-2 to +2)": 0}
{"target": "PRODH", "two-siRNA summed score (-2 to +2)": 0}
{"target": "MGAT4A", "two-siRNA summed score (-2 to +2)": 1}
{"target": "SIAH3", "two-siRNA summed score (-2 to +2)": 1}
{"target": "RBMY1A1", "two-siRNA summed score (-2 to +2)": 0}
{"target": "ITPRID1", "two-siRNA summed score (-2 to +2)": 0}
{"target": "NID2", "two-siRNA summed score (-2 to +2)": 0}
{"target": "KDM5C", "two-siRNA summed score (-2 to +2)": 0}
{"target": "ZNF141", "two-siRNA summed score (-2 to +2)": 0}
{"target": "LOC440460", "two-siRNA summed score (-2 to +2)": 1}
{"target": "PPTC7", "two-siRNA summed score (-2 to +2)": 0}
{"target": "LOC285735", "two-siRNA summed score (-2 to +2)": 0}
{"target": "LOC440456", "two-siRNA summed score (-2 to +2)": 0}
{"target": "MIS18A", "two-siRNA summed score (-2 to +2)": 0}

An excerpt of the results above, as a working copy:
{"target": "RBMY1A1", "two-siRNA summed score (-2 to +2)": 0}
{"target": "ITPRID1", "two-siRNA summed score (-2 to +2)": 0}
